Some results were stated once for a whole list of compounds, not compound by compound.
Assays:
Magnaporthe grisea = assay type: in vivo; settings: 250 ppm sprayed (2.5 ml/pot) on rice (Sachikaze); disease development 6 to 10 days after inoculation
Puccinia recondita = experiment: Test Example E: Brown rust on wheat; assay type: in vivo; settings: 250 ppm sprayed (2.5 ml/pot) on wheat (Norin 61); disease development 7 to 10 days after inoculation
Botrytis cinerea = experiment: Test Example B: Gray mold on tomato; settings: 250 ppm sprayed (2.5 ml/pot) on tomato (Oogata Fukuju); disease development 2 to 3 days after inoculation
Plasmopara viticola = experiment: Test Example G: Downy mildew on vine; settings: 250 ppm sprayed (2.5 ml/pot) on grape (Neomuscat); disease development 7 to 10 days after inoculation
Alternaia brassicicola = experiment: Test Example C: Alternaria sooty spot on cabbage; settings: 250 ppm sprayed (2.5 ml/pot) on cabbage (Shikidori); disease development 2 to 3 days after inoculation
[1] = system: Colletotrichum orbiculare; experiment: Test Example H: Anthracnose on cucumber; settings: 250 ppm sprayed (2.5 ml/pot) on cucumber (Sagami Hanjiro); disease development 6 to 10 days after inoculation
[2] = system: Blumeria graminis f. sp. hordei; experiment: Test Example D: Powdery mildew on barley; settings: 250 ppm sprayed (2.5 ml/pot) on barley (Akashinriki); disease development 6 to 10 days after inoculation

Measured: control value

CCn1c(-c2ccccc2)c(-c2cc(C)ccc2C)cc(Cl)c1=O [compound 484]
> 50%: Magnaporthe grisea | Puccinia recondita | Botrytis cinerea | Plasmopara viticola | Alternaia brassicicola

COc1cc(OC)c(Br)c(-c2ccc(=O)n(C)c2-c2ccccc2)c1 [compound 1]
> 50%: Magnaporthe grisea | Puccinia recondita | Botrytis cinerea | Plasmopara viticola | Alternaia brassicicola

CCN1C(=O)CCC(c2cc(F)cc(F)c2F)=C1c1ccc(F)cc1 [compound 65]
> 50%: Magnaporthe grisea | Puccinia recondita | Plasmopara viticola

Cn1c(-c2ccc(F)cc2)c(-c2ccc(Br)cc2Cl)cc(F)c1=O [compound 400]
> 50%: Magnaporthe grisea | Puccinia recondita | Botrytis cinerea | Plasmopara viticola

Cn1c(-c2ccccc2)c(-c2ccccc2Cl)cc(Cl)c1=O [compound 129]
> 50%: Magnaporthe grisea | Puccinia recondita | Botrytis cinerea | Plasmopara viticola

Cn1c(-c2cc(C(F)(F)F)cc(C(F)(F)F)c2)c(-c2ccccc2Cl)ccc1=O [compound 197]
> 50%: Plasmopara viticola

Cc1ccc(F)cc1-c1cc(Br)c(=O)n(CC(F)F)c1-c1ccc(F)cc1 [compound 476]
> 50%: Magnaporthe grisea | Puccinia recondita | Botrytis cinerea | [1] | [2] | Alternaia brassicicola

CCn1c(-c2ccc(F)cc2)c(-c2cc(F)cc(F)c2F)ccc1=O [compound 66]
> 50%: Magnaporthe grisea | Puccinia recondita | Botrytis cinerea | [1] | [2] | Alternaia brassicicola

CCn1c(-c2ccccc2)c(-c2cccc(F)c2Cl)cc(Br)c1=O [compound 89]
> 50%: Magnaporthe grisea | Puccinia recondita | Botrytis cinerea | [1] | [2] | Alternaia brassicicola

Cn1c(-c2ccc(F)cc2)c(-c2cc(F)ccc2Cl)cc(Cl)c1=O [compound 9]
> 50%: Magnaporthe grisea | Puccinia recondita | Botrytis cinerea | [1] | [2] | Alternaia brassicicola

CCn1c(-c2ccc(F)cc2)c(-c2cc(F)ccc2C)cc(Cl)c1=O [compound 495]
> 50%: Magnaporthe grisea | Puccinia recondita | Botrytis cinerea | [1] | [2] | Alternaia brassicicola

Cc1ccc(F)cc1-c1cc(Cl)c(=O)n(CC(F)F)c1-c1ccccc1 [compound 470]
> 50%: Magnaporthe grisea | Puccinia recondita | Botrytis cinerea | [1] | [2] | Alternaia brassicicola

CCn1c(-c2ccc(OC)cc2)c(-c2cc(F)cc(F)c2Br)cc(Br)c1=O [compound 255]
> 50%: Magnaporthe grisea | Puccinia recondita | Botrytis cinerea | [1] | [2] | Alternaia brassicicola

O=c1c(Br)cc(-c2ccccc2Cl)c(-c2ccc(F)cc2)n1CC(F)F [compound 408]
> 50%: Magnaporthe grisea | Puccinia recondita | Botrytis cinerea | [1] | [2] | Alternaia brassicicola

COc1cc(OC)c(Cl)c(-c2ccc(=O)n(C)c2-c2ccc(F)cc2)c1 [compound 126]
> 50%: Magnaporthe grisea | Puccinia recondita | Botrytis cinerea | [1] | [2] | Alternaia brassicicola

CCn1c(-c2ccc(F)cc2)c(-c2cc(F)cc(F)c2Br)ccc1=O [compound 131]
> 50%: Magnaporthe grisea | Puccinia recondita | Botrytis cinerea | [1] | [2] | Alternaia brassicicola
